The values below come from PMC7862700.

The chains behind the UniProt entries cited, without tags or fusion partners. Where a name states a change or a piece, a line headed by the entry shows the natural chain unless it says otherwise.
UniProt Q00613: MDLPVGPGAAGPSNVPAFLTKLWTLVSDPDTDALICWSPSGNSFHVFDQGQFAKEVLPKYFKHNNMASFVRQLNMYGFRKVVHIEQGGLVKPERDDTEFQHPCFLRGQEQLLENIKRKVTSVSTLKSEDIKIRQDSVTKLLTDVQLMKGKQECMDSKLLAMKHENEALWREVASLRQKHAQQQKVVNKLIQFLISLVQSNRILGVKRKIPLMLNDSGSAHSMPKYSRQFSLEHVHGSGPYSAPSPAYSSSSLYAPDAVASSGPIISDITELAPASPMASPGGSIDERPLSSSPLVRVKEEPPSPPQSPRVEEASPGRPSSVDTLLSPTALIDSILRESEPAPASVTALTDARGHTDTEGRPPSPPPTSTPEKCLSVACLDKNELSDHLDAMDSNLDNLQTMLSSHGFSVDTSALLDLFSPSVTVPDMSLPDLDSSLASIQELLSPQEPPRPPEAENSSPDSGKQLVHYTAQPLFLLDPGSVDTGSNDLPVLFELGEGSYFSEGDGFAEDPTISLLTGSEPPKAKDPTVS

Only a part is listed here, and it is no random draw. For some assays here: At the low end of the ranking, values are background and their order means little. Some of the results follow. For some assays here: The exact form of the protein is not confirmed.

The target in one assay is HSF1 (UniProt Q00613). In words: DAPPL (digital affinity profiling via proximity ligation, sequencing). The settings on record: 10 mM Tris-HCl pH 7.5, 50 mM NaCl, 1 mM DTT, 4% glycerol, room temperature, 30 min; GST-TFs on glutathione beads, 16-mer random dsDNA library, 0.1% …; high values mean tight binding; double strand, one strand shown; scale: fold enrichment (6-mer frequency, TF over GST control).
CAGCCC: the binding signal was 0.92.

Consider TTACCA, for which the binding signal came out at 1.47.

ACAAGG showed a binding signal of 0.821.

CTGAGG had a binding signal of 0.694.

Sequence AAATCA displayed a binding signal of 1.17.

For the sequence AAAGCC, the binding signal is 1.14.

ATACGG yielded a binding signal of 0.906.

Turning to TCCTGA, the binding signal worked out at 1.57.

In turn, CAATAG gave a binding signal of 0.964.

Turning to GGGTAT, the binding signal worked out at 0.865.

Take GTACAC: the binding signal turned out to be 0.899.

The sequence GCTTTT gave a binding signal of 1.12.

In the case of CTGTCC, the binding signal came out at 0.948.

For CACACG, the binding signal was 0.889.

On to GTGGTT, for which the binding signal was 0.724.

CCTAAC registered a binding signal of 1.19.

Regarding AGCACG, the binding signal was found to be 0.786.

In turn, CTGGTC showed a binding signal of 0.972.

In turn, TAAGTT returned a binding signal of 1.45.

The sequence GTTGGT returned a binding signal of 0.715.

AAGGCA: the binding signal is 0.914.

In the case of CTCAGC, the binding signal was found to be 1.1.

CTCGCA: the binding signal came out at 1.61.

GGACAT: the binding signal was found to be 0.766.

For the sequence CTCATC, the binding signal was 1.27.

TCAACA came in with a binding signal of 0.932.

Regarding TCATGT, the binding signal came out at 0.929.

In turn, TCACCG returned a binding signal of 0.956.

Sequence CTCCAG registered a binding signal of 1.65.

For the sequence CCGTAT, the binding signal was 0.882.

AACACG gave a binding signal of 1.02.

The sequence ACCTGT displayed a binding signal of 0.755.

CGCCTG registered a binding signal of 0.969.

Consider TAAATG, for which the binding signal worked out at 1.37.

TTACGT returned a binding signal of 1.21.

ACCTGA registered a binding signal of 0.922.

Take ATAGCG: the binding signal worked out at 0.852.

TCCGCA yielded a binding signal of 1.21.

ACCCCT: the binding signal is 0.856.

Regarding ACACTA, the binding signal worked out at 1.12.

A further assay has as its target T1, ELF2 (UniProt Q15723).
T1 sequence: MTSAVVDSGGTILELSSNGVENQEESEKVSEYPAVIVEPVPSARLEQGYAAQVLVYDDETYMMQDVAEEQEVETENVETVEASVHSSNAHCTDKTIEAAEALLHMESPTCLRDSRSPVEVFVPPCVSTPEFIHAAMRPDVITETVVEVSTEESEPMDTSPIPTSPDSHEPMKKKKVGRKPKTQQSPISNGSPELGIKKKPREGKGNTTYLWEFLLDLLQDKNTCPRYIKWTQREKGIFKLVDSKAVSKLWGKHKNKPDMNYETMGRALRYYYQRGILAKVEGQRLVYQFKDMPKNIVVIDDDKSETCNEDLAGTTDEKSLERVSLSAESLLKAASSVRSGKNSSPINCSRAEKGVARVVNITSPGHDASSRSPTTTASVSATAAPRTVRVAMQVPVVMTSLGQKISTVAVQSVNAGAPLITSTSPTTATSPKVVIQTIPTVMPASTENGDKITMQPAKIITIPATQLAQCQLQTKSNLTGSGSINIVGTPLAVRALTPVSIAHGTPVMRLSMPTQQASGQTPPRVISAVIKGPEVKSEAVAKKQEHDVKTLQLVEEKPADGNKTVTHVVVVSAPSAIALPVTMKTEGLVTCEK
The assay is described as above. The settings on record: 10 mM Tris-HCl pH 7.5, 50 mM NaCl, 1 mM DTT, 4% glycerol, room temperature, 30 min; GST-TFs on glutathione beads, 16-mer random dsDNA library, 0.1% …; high values mean tight binding; double strand, one strand shown; scale: fold enrichment (6-mer frequency, TF over GST control).
For the sequence CAGCCC, the binding signal stood at 1.11.

The sequence TTACCA registered a binding signal of 1.02.

For the sequence ACAAGG, the binding signal was determined as 0.949.

In the case of CTGAGG, the binding signal stood at 0.826.

AAATCA showed a binding signal of 1.23.

Sequence AAAGCC displayed a binding signal of 1.

In the case of ATACGG, the binding signal amounted to 1.44.

The sequence TCCTGA gave a binding signal of 1.66.

In the case of CAATAG, the binding signal was 1.03.

In turn, GGGTAT showed a binding signal of 0.969.

In turn, GTACAC gave a binding signal of 1.2.

For the sequence GCTTTT, the binding signal was 1.09.

CTGTCC came in with a binding signal of 1.18.

The sequence CACACG displayed a binding signal of 1.09.

GTGGTT displayed a binding signal of 0.889.

Consider CCTAAC, for which the binding signal turned out to be 1.35.

With AGCACG, the binding signal was determined as 0.908.

The sequence CTGGTC came in with a binding signal of 1.14.

In turn, TAAGTT returned a binding signal of 1.38.

In the case of GTTGGT, the binding signal came to 0.915.

AAGGCA showed a binding signal of 1.01.

CTCAGC displayed a binding signal of 1.22.

On to CTCGCA, for which the binding signal was found to be 1.23.

With GGACAT, the binding signal worked out at 1.34.

For the sequence CTCATC, the binding signal came out at 1.27.

The sequence TCAACA gave a binding signal of 1.

With TCATGT, the binding signal stood at 1.04.

TCACCG gave a binding signal of 1.1.

CTCCAG gave a binding signal of 1.11.

CCGTAT displayed a binding signal of 1.36.

Take AACACG: the binding signal was found to be 1.25.

Turning to ACCTGT, the binding signal was 0.953.

In turn, CGCCTG registered a binding signal of 1.03.

TAAATG had a binding signal of 1.23.

In turn, TTACGT yielded a binding signal of 1.08.

Take ACCTGA: the binding signal stood at 1.01.

ATAGCG showed a binding signal of 0.999.

Sequence TCCGCA displayed a binding signal of 2.82.

Turning to ACCCCT, the binding signal was found to be 1.05.

On to ACACTA, for which the binding signal stood at 1.13.
